Reference: ChEMBL document CHEMBL1955720 (Bioorg Med Chem, 2012)

Biological target: T1, Aromatase (Homo sapiens, UniProt P11511)
T1 sequence (P11511 whole entry): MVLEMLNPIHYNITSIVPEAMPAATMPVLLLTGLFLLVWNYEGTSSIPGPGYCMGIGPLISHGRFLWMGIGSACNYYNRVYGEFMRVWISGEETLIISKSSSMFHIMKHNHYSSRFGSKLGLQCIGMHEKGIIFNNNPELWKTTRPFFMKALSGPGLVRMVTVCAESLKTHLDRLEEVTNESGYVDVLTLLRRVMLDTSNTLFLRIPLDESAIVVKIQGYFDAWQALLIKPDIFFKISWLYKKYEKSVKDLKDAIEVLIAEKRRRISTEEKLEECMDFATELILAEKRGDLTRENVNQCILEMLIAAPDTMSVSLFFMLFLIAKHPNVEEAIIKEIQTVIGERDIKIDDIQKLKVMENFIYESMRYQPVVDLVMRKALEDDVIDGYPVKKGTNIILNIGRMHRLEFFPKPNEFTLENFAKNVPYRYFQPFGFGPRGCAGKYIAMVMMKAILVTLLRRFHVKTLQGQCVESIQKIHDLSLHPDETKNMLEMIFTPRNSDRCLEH

Ki: 0.13 nM
SMILES: CC(C)(C#N)c1cc(Cn2cncn2)cc(C(C)(C)C#N)c1 [ANASTROZOLE]
